Laboratory results as given in patent publication US7906486B2, “Method of treating or preventing tissue deterioration, injury or damage due to disease of mucosa” (SciClone Pharmaceuticals, Inc., priority 2007, dated 2011).
Where “and” joins values, the source holds several entries; their conditions need not be identical. Identical values can stand only once. The source gives many values for each of these; only a part stands here.

Experiment: Weights and survival (Example 4, SCI-04)
Type: in vivo, Syrian Golden Hamsters
Parameters: unit not given here
Details: individual animals
Procedure: All animals were weighed daily and their survival recorded, in order to assess possible differences in animal weight among treatment groups as an indication for mucositis severity and/or possible toxicity resulting from the treatments.
There were no significant differences in weight changes between study groups. The mean daily percent weight change data was evaluated. The saline treated control hamsters gained an average of 46.5% of their starting weight during the study. Hamsters in the group receiving SCV-07 at 10 μg/kg on days −1 to 20 gained an average of 51.3% of their starting weight during the study. Hamsters in the group receiving SCV-07 at 100 μg/kg on days −1 to 20 gained an average of 46.7% of their starting weight during the study. Hamsters in the group receiving SCV-07 at 1 mg/kg from day −1 to day 20 gained an average of 48.8% of their starting weight during the study. The significance of these differences was evaluated by calculating the area-under-the-curve (AUC) for the weight gain of each animal, and then comparing the different treatment groups using a One-Way ANOVA test.

With N[C@H](CCC(=O)N[C@@H](Cc1c[nH]c2ccccc12)C(=O)O)C(=O)O [SCV-07, γ-D-glutamyl-L-tryptophan] the Animal weight (Group 3 (SCV-07 100 μg/kg, day −1 to day 20), day 15) was 109 and 97 and 103 (2×) and 131 and 95 (2×) and 110 and 128 and 116, the Animal weight (Group 3 (SCV-07 100 μg/kg, day −1 to day 20), day 16) was 110 and 98 and 103 and 132 and 97 (2×) and 101 and 128 and 117 and 105 and the Animal weight (Group 3 (SCV-07 100 μg/kg, day −1 to day 20), day 17) was 112 and 100 (2×) and 106 (2×) and 134 and 99 and 103 and 129 and 119. For the same compound, the Animal weight (Group 3 (SCV-07 100 μg/kg, day −1 to day 20), day 18) was 114 and 102 and 107 and 134 and 101 (2×) and 104 and 132 and 120 and 108, the Animal weight (Group 3 (SCV-07 100 μg/kg, day −1 to day 20), day 19) was 115 and 103 and 110 and 140 and 101 and 105 and 134 and 123 and 112 and 102 and the Animal weight (Group 3 (SCV-07 100 μg/kg, day −1 to day 20), day 20) was 118 and 104 and 110 and 139 and 105 and 106 and 136 and 123 and 112 and 102. The Animal weight (Group 3 (SCV-07 100 μg/kg, day −1 to day 20), day 21) was 117 (2×) and 107 and 113 and 142 and 106 (2×) and 138 and 126 and 104, the Animal weight (Group 3 (SCV-07 100 μg/kg, day −1 to day 20), day 22) was 123 and 109 (2×) and 114 and 146 and 108 and 139 and 128 and 118 and 107 and the Animal weight (Group 3 (SCV-07 100 μg/kg, day −1 to day 20), day 23) was 123 and 108 and 113 and 146 and 106 and 109 and 138 and 128 and 117 and 107. The Animal weight (Group 3 (SCV-07 100 μg/kg, day −1 to day 20), day 24) was 128 and 113 (2×) and 117 and 146 and 112 and 141 and 131 and 123 and 111, the Animal weight (Group 3 (SCV-07 100 μg/kg, day −1 to day 20), day 25) was 127 and 112 (2×) and 117 and 148 and 115 and 143 and 133 and 123 and 114 and the Animal weight (Group 3 (SCV-07 100 μg/kg, day −1 to day 20), day 26) was 130 and 115 and 123 and 149 and 118 and 113 and 146 and 132 and 125 and 116. For the same compound, the Animal weight (Group 3 (SCV-07 100 μg/kg, day −1 to day 20), day 27) was 130 and 112 and 119 and 149 and 116 and 113 and 146 and 133 and 126 and 115, the Animal weight (Group 3 (SCV-07 100 μg/kg, day −1 to day 20), day 28) was 133 and 117 and 123 and 154 and 120 and 116 and 149 and 137 and 130 and 118 and the Animal weight (Group 3 (SCV-07 100 μg/kg, day −1 to day 20), day −1) was 87 and 81 and 85 and 104 and 78 and 92 and 103 and 96 and 83 and 77. For the same compound, the Animal weight (Group 4 (SCV-07 1 mg/kg, day −1 to day 20), day 0, 1 mg/kg) was 96 (4×) and 91 and 85 and 88 (2×) and 102 and 97, the Animal weight (Group 4 (SCV-07 1 mg/kg, day −1 to day 20), day 1, 1 mg/kg) was 94 and 93 (2×) and 89 and 85 (2×) and 97 and 104 and 83 and 99 and the Animal weight (Group 4 (SCV-07 1 mg/kg, day −1 to day 20), day 2, 1 mg/kg) was 98 and 95 and 90 and 89 and 101 (2×) and 87 and 108 and 93 and 85. For the same compound, the Animal weight (Group 4 (SCV-07 1 mg/kg, day −1 to day 20), day 3, 1 mg/kg) was 103 and 99 and 94 and 92 and 106 and 93 (2×) and 114 and 98 and 107, the Animal weight (Group 4 (SCV-07 1 mg/kg, day −1 to day 20), day 4, 1 mg/kg) was 106 and 103 (2×) and 100 and 96 (2×) and 108 and 115 and 93 and 107 and the Animal weight (Group 4 (SCV-07 1 mg/kg, day −1 to day 20), day 5, 1 mg/kg) was 108 and 104 and 101 and 98 and 111 and 99 and 120 and 105 and 95 and 112. For the same compound, the Animal weight (Group 4 (SCV-07 1 mg/kg, day −1 to day 20), day 6, 1 mg/kg) was 110 and 106 and 103 (3×) and 115 and 119 and 107 and 95 and 113, the Animal weight (Group 4 (SCV-07 1 mg/kg, day −1 to day 20), day 7, 1 mg/kg) was 111 and 109 and 107 and 104 and 118 and 105 and 123 and 110 and 98 and 115 and the Animal weight (Group 4 (SCV-07 1 mg/kg, day −1 to day 20), day 8, 1 mg/kg) was 112 and 110 (2×) and 120 and 105 and 108 and 125 and 113 and 100 and 117. For the same compound, the Animal weight (Group 4 (SCV-07 1 mg/kg, day −1 to day 20), day 9, 1 mg/kg) was 112 and 111 and 110 and 107 and 121 and 109 and 127 and 113 and 102 and 118, the Animal weight (Group 4 (SCV-07 1 mg/kg, day −1 to day 20), day 10, 1 mg/kg) was 113 (3×) and 114 and 109 and 124 and 128 and 116 and 104 and 120 and the Animal weight (Group 4 (SCV-07 1 mg/kg, day −1 to day 20), day 11, 1 mg/kg) was 111 and 113 and 115 and 112 and 122 and 114 and 127 and 116 and 102 and 123. The Animal weight (Group 4 (SCV-07 1 mg/kg, day −1 to day 20), day 12, 1 mg/kg) was 113 (3×) and 114 and 126 and 118 and 127 and 116 and 104 and 125, the Animal weight (Group 4 (SCV-07 1 mg/kg, day −1 to day 20), day 13, 1 mg/kg) was 113 (3×) and 114 and 124 and 120 and 122 and 115 and 104 and 125 and the Animal weight (Group 4 (SCV-07 1 mg/kg, day −1 to day 20), day 14, 1 mg/kg) was 114 (2×) and 113 (2×) and 115 and 124 and 121 and 125 and 103 and 127. For the same compound, the Animal weight (Group 4 (SCV-07 1 mg/kg, day −1 to day 20), day 15, 1 mg/kg) was 112 (2×) and 123 and 116 and 114 and 118 and 125 (2×) and 115 and 105, the Animal weight (Group 4 (SCV-07 1 mg/kg, day −1 to day 20), day 16, 1 mg/kg) was 113 and 116 (2×) and 114 and 123 and 119 and 128 (2×) and 115 and 107 and the Animal weight (Group 4 (SCV-07 1 mg/kg, day −1 to day 20), day 17, 1 mg/kg) was 114 and 118 and 117 and 120 (2×) and 127 and 131 (2×) and 119 and 110. The Animal weight (Group 4 (SCV-07 1 mg/kg, day −1 to day 20), day 18, 1 mg/kg) was 116 and 119 (3×) and 120 and 130 and 123 and 132 and 112 and 134, the Animal weight (Group 4 (SCV-07 1 mg/kg, day −1 to day 20), day 19, 1 mg/kg) was 117 and 119 and 122 and 123 (2×) and 130 and 134 and 121 and 114 and 135 and the Animal weight (Group 4 (SCV-07 1 mg/kg, day −1 to day 20), day 20, 1 mg/kg) was 120 and 122 (4×) and 132 and 125 and 135 and 114 and 133. The Animal weight (Group 4 (SCV-07 1 mg/kg, day −1 to day 20), day 21, 1 mg/kg) was 121 and 123 (2×) and 126 and 125 and 137 and 128 and 139 and 115 and 138, the Animal weight (Group 4 (SCV-07 1 mg/kg, day −1 to day 20), day 22, 1 mg/kg) was 123 and 125 (2×) and 129 and 126 and 141 and 130 and 143 and 117 and 142 and the Animal weight (Group 4 (SCV-07 1 mg/kg, day −1 to day 20), day 23, 1 mg/kg) was 124 (2×) and 128 and 127 and 139 and 129 and 143 and 126 and 116 and 144. For the same compound, the Animal weight (Group 4 (SCV-07 1 mg/kg, day −1 to day 20), day 24, 1 mg/kg) was 130 and 129 (2×) and 133 and 142 and 134 and 145 and 128 and 119 and 148, the Animal weight (Group 4 (SCV-07 1 mg/kg, day −1 to day 20), day 25, 1 mg/kg) was 130 (3×) and 137 and 131 and 147 and 136 and 148 and 123 and 149 and the Animal weight (Group 4 (SCV-07 1 mg/kg, day −1 to day 20), day 26, 1 mg/kg) was 133 (2×) and 132 and 138 and 131 and 147 and 139 and 150 and 126 and 152. The Animal weight (Group 4 (SCV-07 1 mg/kg, day −1 to day 20), day 27, 1 mg/kg) was 133 (2×) and 138 and 131 and 145 and 137 and 150 and 132 and 125 and 151, the Animal weight (Group 4 (SCV-07 1 mg/kg, day −1 to day 20), day 28, 1 mg/kg) was 136 (2×) and 141 and 133 and 150 and 142 and 153 and 135 and 130 and 155 and the Animal weight (Group 4 (SCV-07 1 mg/kg, day −1 to day 20), day −1, 1 mg/kg) was 97 (2×) and 96 and 93 and 87 and 100 and 88 (2×) and 104 and 99.
